This note sets out measurements from article PMC7718874, “Coupling of H3K27me3 recognition with transcriptional repression through the BAH-PHD-CPL2 complex in Arabidopsis” (Nature Communications, 2020).

For the assay, the target named is T1, ASI1-IMMUNO… PROTEIN 3 (AIPP3), epitope-tagged in transgenic Arabidopsis (Arabidopsis) (UniProt Q8RXT5).
T1 sequence: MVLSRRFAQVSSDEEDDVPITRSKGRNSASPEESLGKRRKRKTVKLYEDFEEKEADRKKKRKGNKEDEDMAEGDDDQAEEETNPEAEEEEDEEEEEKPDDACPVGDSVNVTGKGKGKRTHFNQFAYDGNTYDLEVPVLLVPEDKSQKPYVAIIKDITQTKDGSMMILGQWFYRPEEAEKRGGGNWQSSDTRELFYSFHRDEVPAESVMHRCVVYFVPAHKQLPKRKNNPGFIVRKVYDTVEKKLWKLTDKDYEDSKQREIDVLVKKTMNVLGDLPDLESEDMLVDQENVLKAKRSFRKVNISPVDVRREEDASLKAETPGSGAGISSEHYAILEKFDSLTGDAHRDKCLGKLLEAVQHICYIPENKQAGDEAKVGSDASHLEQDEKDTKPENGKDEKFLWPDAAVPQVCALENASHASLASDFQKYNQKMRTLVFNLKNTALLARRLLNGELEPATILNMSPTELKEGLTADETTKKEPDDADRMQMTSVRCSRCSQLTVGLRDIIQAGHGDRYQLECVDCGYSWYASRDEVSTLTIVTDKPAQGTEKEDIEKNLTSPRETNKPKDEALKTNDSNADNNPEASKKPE
As to the kind of experiment: SEC; gel filtration of total proteins of seedlings expressing AIPP3-FLAG, AIPP2-4MYC, PAIPP2-3FLAG and CPL2-4MYC in IP buffer on Superdex 200 10/300GL; fractions read by western blotting. On the technique in general: Size exclusion chromatography separates by hydrodynamic size, large species first.

These are yes or no findings as the source states them, for the method shown. Some binding calls cover weakened binding; strength is not graded here. Tags and fused reporters may be left off the sequences shown.

B1: PARALOG OF AIPP2 (PAIPP2), epitope-tagged in transgenic Arabidopsis (protein, UniProt F4KE59 1-1311)
chain: MADRRVGKRQMGQRGFSKVESGTCNVCSAPCSSCMHRNVGFTGSKLDESSDENCHGVVGSQCSVNEDDLLPSSMVNAHKSLNNTASEASNLVNSSHDALSENAESKETIRCSGISDDSGAAAMTSKPSLSGSRMKHKVSASANMLDQSSNCIEDQEDGILSADRAKQLKSGCSNNEIGNKDLADGSALNSDPIPGGSRKDEVKLESLQNPSSNHDDRVSSEKGNFKEKSRPGGNKERQEPSVEGSTRSGENRKDGKSSKSSSSNSSAVSESESDDSEMVEHDVKVCDICGDAGREDLLAICSGCSDGAEHTYCMREMLDEVPEGDWLCEECAEEAEKQKQEAKRKRETEVTFNTYSSGKRHADKIEAAPDAKRQVVEASTGSPKKSILPRVGALSRETSFKGLDRLRGKLNHQTSFSDDTESARSAGSQLQPPKGAFLKSSSFNCSSSKPKVQLMDDAIHPRQKTGKEDTALDLKVGGFRNVGKSMPSRTTDAGNSGGSDSQAKMLGSKVYHSQEGKSLKQVKDRNREANASASSIDQKLKSRGNSSVSHANNNRDLKGLQSDGKRGNLTKQVSNLSRNRLENSVVSGGDISTNEKCSASEQSSSQADCKDELPSTSCTGEGMPNHGTVALQDGLPRSRVPREVGKKSKEAFSKRQRSSLLAGAKGLPSSQKGGQTAESSDTSGVSDSDLSTTKNVKEDLNKGNRLRAAVDAALRKKPSFGKNRVLEQSDASLVANVDSSSEKTLRNQLPSKMHKNHVSHEGLQGGHPILWPTSDPYKQTIVTNEKQLIFPGADTIPSRLVEPEVSFPAVKPVMRDLPLVPSPVMLRSSAIPDHEFIWQGDLEVRKIINQSAMHSGIQAHLSTLASPRVAEVVNKFPETFSLNEVPRKSTWPTQFEKLGTKEAHIALFFFAKDTESYERNYKPLVDNMIKNDLALKGNLDNVDLLIFASNQLPSNCQRWNMLYFLWGVFQGRKETNPQKNTSLPTSNVLPRDRDPKELCQTSSPSKHLEKGSSLRESSSNGIETRNGTDARSHENPNNRESSIERSPSKKEDIALKVEEAGVNHIPPQVTGSNSGDSLVRKVQKVEEQELGGRKDLPLTVMGSGIQSHGQDNPLEKDLNSSQASHRKRPLWELSNPANENSSAINQKVELNNDGLCEGSPNKKLKTENGSSSLCRDTSGHDSGIMKKSPKVVFPLDLNDDSEMVDNLSPLGNDENNNNRRLISGTVPNLELALGAEETTEATMGLLPFLSRSSNSGEQSNNSMNKEKQKADEEEEDDAEVAASLSLSLSFPGTEERKNVNTPLFLFRDLPR
Turning to B1, the binding result is reported as “binds”.

B2: CPL2, epitope-tagged in transgenic Arabidopsis (enzyme, UniProt Q5YDB5 1-770)
chain: MNRLGHKSVVYHGDLRLGELDVNHVSSSHEFRFPNDEIRIHHLSPAGERCPPLAILQTIASFAVRCKLESSAPVKSQELMHLHAVCFHELKTAVVMLGDEEIHLVAMPSKEKKFPCFWCFSVPSGLYDSCLRMLNTRCLSIVFDLDETLIVANTMKSFEDRIEALKSWISREMDPVRINGMSAELKRYMDDRMLLKQYIDNDYAFDNGVLLKAQPEEVRPTSDGQEKVCRPVIRLPEKNTVLTRIKPEIRDTSVLVKLRPAWEELRSYLTAKTRKRFEVYVCTMAERDYALEMWRLLDPEAHLISLKELRDRIVCVKPDAKKSLLSVFNGGICHPKMAMVIDDRMKVWEDKDQPRVHVVSAYLPYYAPQAETALVVPHLCVARNVACNVRGYFFKEFDESLMSSISLVYYEDDVENLPPSPDVSNYVVIEDPGFASNGNINAPPINEGMCGGEVERRLNQAAAADHSTLPATSNAEQKPETPKPQIAVIPNNASTATAAALLPSHKPSLLGAPRRDGFTFSDGGRPLMMRPGVDIRNQNFNQPPILAKIPMQPPSSSMHSPGGWLVDDENRPSFPGRPSGLYPSQFPHGTPGSAPVGPFAHPSHLRSEEVAMDDDLKRQNPSRQTTEGGISQNHLVSNGREHHTDGGKSNGGQSHLFVSALQEIGRRCGSKVEFRTVISTNKELQFSVEVLFTGEKIGIGMAKTKKDAHQQAAENALRSLAEKYVAHVAPLARETEKGPENDNGFLWESSEDVSNKGLEEEAPKENISEL
Consider B2, for which the binding entry is listed as “binds”.

B3: AIPP2, epitope-tagged in transgenic Arabidopsis (protein, UniProt F4IYH6 1-994)
chain: MADRRVGNRPMGRRGRLEIQSGTCNVCSAPCSSCMHHNAEFSGSKSDESSDENSHGVLASQCSFNGDNLLRSSGVNAPGSSHNTSSEASHLVNSNHDTSSENAESKEIIRSSDISHGPLLDRPHKDQDSMKVDSCNDHQARSTLGQGKVKEKSGAKNNEEKKNTLTGSSKHSGPRVGKSGENVLLNKADESNTSAMSDSESENDPEMLELDVKVCDTCGDAGREDLLAICSRCSDGAEHTYCMRVMLKKVPKGYWLCEECKFAEKAEKHKLETKRKRESEVNVNTQISSKRHIDKFEAVPDSKRLAVGAQIGSPKRSVLPRMSTLSRETSFKGLEKPTRKLAHYSSFNSHSSDDTESTRSTDSQLQSPKGSFLKSNSFNSLSSRSKVRPVDDDMLPRQKTGNENSSLEVKEGFSKNVGKSMSSRCIDVGSSNCNDSKVKGSKQLKDWSTEANPSASISRGNSSIPYAKSPRDLKDLQSDGKQGSLSKQARHLSRNRLEDIVASVGDSSKNEKCSSSEQISSEAKCKDELAQVDGVPRSREFREAGEKTKDAVGNHQKRNIGEDNNKGNRLRAAVDAALRKKPSFSKNRGLEQSDLPPVSNVDSGCNKALKCLSSKVPVIRDWPVGFQGLPGGHPNLRTDKQTNTVNEKQFTLAGTDATTASQSVEPEVNDPSVQSVMRDLPVAAPNVLSTTSAIPKPEYIWQGDLEVQKSRNLSAMHSGIQAYLSTLASPKVVEVVKQFPEKVTLNEVPRLSSWPAQFQDTGAKEQHVALFFFAKDIESYEKNYKPLVDNMIQKDLALKGNLEGVELLIFASNQLPQDCQRWNMLFFLWGVFRGKKESCSNPPKNTPLPASCVSPNRDTFRHENPSNKKSLTDRTLSRMQSCMKEEDAKEGKACSGTEKENAFSVSYGEGEVDVETEEGEIGVSPQLKYEKTAGPGTVKSADMNQRVNVDDLNKEGLCEGPANKKLKTVTGVETGCSIVRRDTSVHKFASRKFV
Consider B3, for which the binding result is “binds”.
